Reference: paper PMC545799

Protein sequences, listed by entry. Tags and fused reporters are not part of them.
UniProt P23573: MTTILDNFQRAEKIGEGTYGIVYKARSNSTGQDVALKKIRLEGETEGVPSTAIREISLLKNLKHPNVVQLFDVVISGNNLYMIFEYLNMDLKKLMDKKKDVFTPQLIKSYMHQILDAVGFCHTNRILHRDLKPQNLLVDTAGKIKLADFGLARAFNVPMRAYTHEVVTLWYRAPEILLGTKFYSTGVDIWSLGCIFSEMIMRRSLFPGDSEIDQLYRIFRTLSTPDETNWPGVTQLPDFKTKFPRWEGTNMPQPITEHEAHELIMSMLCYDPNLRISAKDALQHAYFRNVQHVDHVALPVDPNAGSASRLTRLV
UniProt P23572: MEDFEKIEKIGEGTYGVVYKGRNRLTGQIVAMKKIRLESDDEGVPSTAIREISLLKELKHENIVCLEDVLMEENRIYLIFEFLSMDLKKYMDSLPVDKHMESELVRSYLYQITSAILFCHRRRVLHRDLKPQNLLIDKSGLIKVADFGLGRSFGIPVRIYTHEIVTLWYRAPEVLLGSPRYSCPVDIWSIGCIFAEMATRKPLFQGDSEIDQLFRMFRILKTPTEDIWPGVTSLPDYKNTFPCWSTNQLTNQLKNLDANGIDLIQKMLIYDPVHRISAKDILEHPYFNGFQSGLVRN

Experiments:
[1] = target: Cdc2c (Drosophila melanogaster) (UniProt P23573); assay: two-hybrid; LexA-based yeast two-hybrid: LexA BD fusions (pHZ5-NRT, strain Y309) mated with B42 AD fusions (pJZ4-NRT, strain RFY231); pooled mating in two phases and library screening; LEU2 (growth without leucine, 0-3) and lacZ (X-Gal, 0-5) reporters on galactose and maltose medium, 30°C; interactions re-tested one-on-one
[2] = target: Cdc2 (Drosophila melanogaster) (UniProt P23572); assay: as above

Question: CG9790 (from UniProt Q9VHN1) was tested. Which binding [1] did it give?
Answer: The binding was “binds”.

Question: What about the binding [2] of the same substance?
Answer: The binding was “binds”.

No constants are given. Whether binding was seen depends on the method and setting. Binding can be weak; no strength is given.
